The results in this text go back to ChEMBL document CHEMBL5329184, “Design, synthesis, electrochemistry and anti-trypanosomatid hit/lead identification of nitrofuranylazines” (RSC Med Chem, 2023).

The test system of the assay is THP-1. Briefly: cells. The assay is classed as functional, cell-based. The settings on record: Homo sapiens, THP-1, 72 h.

For orientation: IC50 means the concentration needed to halve the response being measured. A low value points to inhibition by little substance. Regarding `O=C1OCCN1/N=C/c1ccc([N+](=O)[O-])o1` [FURAZOLIDONE], the IC50 is greater than 100 µM.
